Assay results as given in PubChem BioAssay (NCATS).
“And” between values parts separate entries of the source, which are not always exact repeats. Equal entries are not always repeated. Inconclusive results, whose numbers are uncertain, are shown with a selection of clear calls. Where the call is inconclusive, the potency comes from a doubtful curve fit. “Side channel” marks fits to a control or component signal instead of the main read-out. The source made the active and inactive calls. Calls follow the shape of the dose curve; as a rule, active = well fitted inhibition curve with a large enough effect in the signal ratio, with a control signal flat (not every such curve was filed as active); inconclusive = small, poorly fitted or top-dose-only effect, or effect the other way, or a change in a side signal; inactive = flat fitted curve, though single readings scatter; the % refers to the signal ratio.

Chains of the proteins cited; added tags and fusions are not shown. Lines headed by an entry give the natural chain unless they say otherwise; changes in a name come on top.
UniProt P10828: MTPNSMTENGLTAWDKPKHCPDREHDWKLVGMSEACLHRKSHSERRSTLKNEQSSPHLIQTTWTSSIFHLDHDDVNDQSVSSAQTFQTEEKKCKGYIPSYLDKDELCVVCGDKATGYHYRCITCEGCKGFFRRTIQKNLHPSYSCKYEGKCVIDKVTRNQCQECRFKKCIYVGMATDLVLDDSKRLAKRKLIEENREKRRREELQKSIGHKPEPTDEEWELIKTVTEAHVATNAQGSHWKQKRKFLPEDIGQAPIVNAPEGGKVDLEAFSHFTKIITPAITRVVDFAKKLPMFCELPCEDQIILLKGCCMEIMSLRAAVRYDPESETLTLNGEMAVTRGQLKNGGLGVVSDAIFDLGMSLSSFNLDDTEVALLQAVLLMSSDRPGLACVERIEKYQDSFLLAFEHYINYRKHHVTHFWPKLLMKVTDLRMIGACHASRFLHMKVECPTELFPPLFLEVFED

What follows are compounds tested against Thyroid hormone receptor beta (Homo sapiens) (UniProt P10828) (assay: qHTS assay for small molecule antagonists of thyroid hormone receptor beta signaling (AID 588547;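 as to activity change % (negative = inhibition): cells stimulated with 0.4 nM T3 agonist during compound exposure; series mostly up to about 77 µM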)). Conditions: TR-UAS-bla HEK293, beta-lactamase ratio, antagonist mode, 18 h.
Outline: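 Inhibition of T3-driven (0.4nM final) beta-lactamase reporter activity was measured over 0.59 nM to 92 uM compound after 18 h at 37 C. The cells were GripTite HEK293 TR-UAS-bla in charcoal/dextran-stripped serum, with CCF4 ratio read-out and IC50 from Hill fits.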
% is scaled to controls: 0 for no effect and ±100 for the full control effect; potency is read from the fitted curve at half-maximal effect.

SMILES	Potency	activity change % (negative = inhibition)
[Cl-].[Cl-].[Hg+2]	inconclusive: 25.1 µM [cytotoxic, side channel, single point]	
COP(=S)(OC)Oc1ccc(Sc2ccc(OP(=S)(OC)OC)cc2)cc1		inconclusive: -23.4%
O=c1oc2ccccc2c(O)c1C(CC(O)c1ccc(-c2ccc(Br)cc2)cc1)c1ccccc1 (stereo not drawn)		inconclusive: -61.5%
C[C@@H]1C[C@@H]([C@H](O)CC2CC(=O)NC(=O)C2)C(=O)[C@@H](C)C1		inconclusive: -44.1% and inconclusive: -30.9%
O=C1C2CC=CCC2C(=O)N1SC(Cl)(Cl)Cl (stereo not drawn)		inconclusive: -32.2%
C[C@H]1O[C@@H](O[C@H]2[C@@H](O)C[C@H](O[C@H]3[C@@H](O)C[C@H](O[C@H]4CC[C@@]5(C)[C@H](CC[C@@H]6[C@@H]5CC[C@]5(C)[C@@H](C7=CC(=O)OC7)CC[C@]65O)C4)O[C@@H]3C)O[C@@H]2C)C[C@H](O)[C@@H]1O	inconclusive: 0.0708 µM [side channel, rising, full curve]	
CCO/N=C(\CC)C1=C(O)CC(c2c(C)cc(C)cc2C)CC1=O (stereo not drawn)		inactive: 5.1%
C[C@@H]1Cc2c(Cl)cc(C(=O)N[C@@H](Cc3ccccc3)C(=O)O)c(O)c2C(=O)O1	inconclusive: 4.47 µM [fluorescent, side channel, full curve, poor fit]	
CCCCCC[C@H]1C(=O)O[C@H](C)[C@H](NC(=O)c2cccc(NC=O)c2O)C(=O)O[C@@H](C)[C@@H]1OC(=O)CC(C)C	inconclusive: 63.1 µM [inhibitor, partial curve, poor fit]	
Clc1ccc(C(c2ccc(Cl)cc2)C(Cl)(Cl)Cl)cc1		inactive: -20.1% and inactive: -18.4%
C[CH2][Hg][S]c1ccccc1C(=O)O	inconclusive: 70.8 µM [cytotoxic, side channel, single point]	
O=c1[nH]c2ccccc2n1C1CCN(CCCC(c2ccc(F)cc2)c2ccc(F)cc2)CC1	inconclusive: 70.8 µM [cytotoxic, side channel, single point]	
Cc1cc2c(C(C)C)c(O)c(O)c(C=O)c2c(O)c1-c1c(C)cc2c(C(C)C)c(O)c(O)c(C=O)c2c1O	inconclusive: 25.1 µM [cytotoxic, side channel, full curve, poor fit]	
CC(=O)[O][Hg][c]1ccccc1	inconclusive: 39.8 µM [cytotoxic, side channel, single point] and inconclusive: 6.31 µM [side channel]	
O=[N+]([O-])/N=C1\NCCN1Cc1ccc(Cl)nc1		inconclusive: 1.02%
O=C(CCl)c1ccc(Cl)cc1Cl	inconclusive: 44.7 µM [falling, partial curve]	
CCOC(=O)CC(SP(=S)(OC)OC)C(=O)OCC (stereo not drawn)	inconclusive: 0.158 µM [cytotoxic, side channel, full curve, poor fit]	inactive: -33.5% and inconclusive: -15.8%

No new results follow: an excerpt of the list.
SMILES	Potency	activity change % (negative = inhibition)
O=c1oc2ccccc2c(O)c1C(CC(O)c1ccc(-c2ccc(Br)cc2)cc1)c1ccccc1 (stereo not drawn)		inconclusive: -61.5%
C[C@@H]1C[C@@H]([C@H](O)CC2CC(=O)NC(=O)C2)C(=O)[C@@H](C)C1		inconclusive: -44.1% and inconclusive: -30.9%
